Laboratory results published in the supplement of paper PMC12889115.
The other results are listed elsewhere or left out. These are raw signals, not scaled to a control.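 First-pass screen: polymyxin B was added at a level that permeabilizes the Salmonella outer membrane while sparing the inner membrane. DMSO wells, with and without polymyxin B, defined maximum growth. Because plates differed from one another, each plate's data were ranked separately and the compounds with the lowest OD600 were carried forward as hits.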

Tested on: Salmonella enterica serovar Typhimurium SL1344
Experiment: bacterial growth OD600 after 18 h with compound and polymyxin B; higher = more bacterial growth (less inhibition)
Settings: 50 µM, Mueller-Hinton broth

How did the “bacterial growth OD600” value (polymyxin B 0.75 µg/mL) turn out when Cc1oc(-c2ccccc2NC(=O)CC2CCCC2)nc1CNC(=O)c1ccc2ccccc2n1 was run?
Its value is 0.717.

With CC(C)(C)C(=O)Nc1ccnn1C1CCN(Cc2ccc(F)cc2Cl)CC1 as the compound, how does the “bacterial growth OD600” value (polymyxin B 0.75 µg/mL) read?
The value was 0.621.

COc1cccc(-c2ccccc2NC(=O)C2CCN(Cc3ccc(F)cc3)CC2)c1 was tested. Which “bacterial growth OD600” value (polymyxin B 1 µg/mL) did it give?
The value was 0.028.

How did the “bacterial growth OD600” value (polymyxin B 0.75 µg/mL) turn out when Cc1ccn(CCC(=O)N2CCc3c(cnc(C)c3CNC(=O)/C=C/c3cccs3)C2)n1 was run?
Its value is 0.846.

Which “bacterial growth OD600” value (polymyxin B 0.75 µg/mL) does the source give for O=C1CCC(CCC(=O)N2CCCC2c2ccc(F)cc2)(Cc2ccc(Cl)cc2)N1 (stereo not given) here?
Its value is 0.948.

Which “bacterial growth OD600” value (polymyxin B 1 µg/mL) does the source give for O=C(c1coc(CN2CCN(c3ncccn3)CC2)n1)N1CCCCCCC1 here?
Its value is 1.07.

How did the “bacterial growth OD600” value (polymyxin B 0.75 µg/mL) turn out when CCn1ccnc1CN1CCCC(CCc2ccccc2F)C1 (stereo not given) was run?
Its value is 0.84.

For CC(=O)CCC(=O)N1CCCC(N2CCN(c3cccc(Cl)c3)CC2)C1 (stereo not given), which “bacterial growth OD600” value (polymyxin B 1 µg/mL) is on record?
Its value is 0.825.

How did the “bacterial growth OD600” value (polymyxin B 1 µg/mL) turn out when CC(C)CNCC1(O)CCCN(Cc2ccc(F)c(F)c2)C1=O (stereo not given) was run?
The value was 0.98.

C[C@@H]1CN(C2(C(=O)N3CC[C@H](O)C3)Cc3ccccc3C2)C[C@H](C)O1 was tested. Which “bacterial growth OD600” value (polymyxin B 0.75 µg/mL) did it give?
The value was 0.756.

For Cc1cccc(C)c1C(=O)NC1CCCN(C2CCCCCC2)C1 (stereo not given), which “bacterial growth OD600” value (polymyxin B 1 µg/mL) is on record?
Its value is 1.27.

For CN1CCCCC1CCNC(=O)c1ccc(NCc2ccccc2)nc1 (stereo not given), which “bacterial growth OD600” value (polymyxin B 1 µg/mL) is on record?
The value was 0.922.

Which “bacterial growth OD600” value (polymyxin B 0.75 µg/mL) does the source give for COc1ccc(CN2CCC(C(=O)Nc3cccc(-c4cscn4)c3)CC2)c(F)c1 here?
The value was 0.409.

With CC(C)CS(=O)(=O)c1ncc(CN(C)C2CCCCC2)n1Cc1ccccc1 as the compound, how does the “bacterial growth OD600” value (polymyxin B 1 µg/mL) read?
The value was -0.001.

Which “bacterial growth OD600” value (polymyxin B 1 µg/mL) does the source give for CN(Cc1cn(Cc2ccccc2)nc1-c1cc2ccccc2o1)C1CCOCC1 here?
The value was 0.99.

COc1ccc(CC2(CCC(=O)NCCc3cccc4ccccc34)CCC(=O)N2)c(F)c1 (stereo not given) was tested. Which “bacterial growth OD600” value (polymyxin B 0.75 µg/mL) did it give?
The value was 0.805.

With CCNC(=O)N1C[C@H]2OC(=O)N(CCc3ccc(F)cc3)[C@H]2C1 as the compound, how does the “bacterial growth OD600” value (polymyxin B 1 µg/mL) read?
Its value is 0.954.

COc1ccc(CC2(CCC(=O)NC(CCn3ccnc3)c3ccccc3)CCC(=O)N2)c(F)c1 (stereo not given) was tested. Which “bacterial growth OD600” value (polymyxin B 0.75 µg/mL) did it give?
Its value is 0.831.

With Cc1cccc(-c2cnc(C)nc2C2CCCN(C(=O)C(c3cccnc3)N3CCOCC3)C2)c1 (stereo not given) as the compound, how does the “bacterial growth OD600” value (polymyxin B 0.75 µg/mL) read?
The value was 0.824.

O=C(CCC1CCN(C(=O)C2=CCCCC2)CC1)Nc1ccccc1 was tested. Which “bacterial growth OD600” value (polymyxin B 1 µg/mL) did it give?
Its value is 0.844.

Which “bacterial growth OD600” value (polymyxin B 1 µg/mL) does the source give for O=C(CC1=CCCCC1)N1CCCC(N2CCN(Cc3ccc4c(c3)OCO4)CC2)C1 (stereo not given) here?
Its value is 0.93.

COCCO[C@H]1[C@H](NC(=O)C(C)C)c2ccccc2C12CCN(C(=O)c1cccc(C)c1C)CC2 was tested. Which “bacterial growth OD600” value (polymyxin B 0.75 µg/mL) did it give?
The value was 0.965.

For COc1ccc(-c2nc(CN(C)C(C)c3nc(C)cs3)c(C)o2)cc1C (stereo not given), which “bacterial growth OD600” value (polymyxin B 0.75 µg/mL) is on record?
The value was 0.649.

CCOC(=O)C1CCN(C(=O)CC(c2ccccc2)c2ccc(OC)cc2)CC1 (stereo not given) was tested. Which “bacterial growth OD600” value (polymyxin B 1 µg/mL) did it give?
Its value is 0.669.

How did the “bacterial growth OD600” value (polymyxin B 0.75 µg/mL) turn out when COCCN1C(=O)CC(CC(=O)N(C)Cc2ccc(OC)c(OC)c2)(c2ccccc2F)C1=O (stereo not given) was run?
Its value is 0.809.

Which “bacterial growth OD600” value (polymyxin B 1 µg/mL) does the source give for Cn1ccnc1CNC(=O)c1cc(COc2ccc3c(c2)OCO3)[nH]n1 here?
The value was 1.14.

How did the “bacterial growth OD600” value (polymyxin B 1 µg/mL) turn out when CC1CCCN(C(=O)c2coc(COc3cccc4cnccc34)n2)C1 (stereo not given) was run?
Its value is 0.902.

How did the “bacterial growth OD600” value (polymyxin B 1 µg/mL) turn out when O=C(c1cn(CC2COc3ccccc3O2)nn1)N1CCCC1 (stereo not given) was run?
Its value is 0.879.

How did the “bacterial growth OD600” value (polymyxin B 0.75 µg/mL) turn out when O=C(NCCN1CCOCC1)c1ccc(N2CCC(N3CCOc4ccc(Cl)cc4C3)CC2)cc1 was run?
The value was 0.794.

For COCC(=O)N1CCC(Oc2ccccc2C(=O)NCCC2=CCCCC2)CC1, which “bacterial growth OD600” value (polymyxin B 1 µg/mL) is on record?
The value was 0.01.
